These are yes or no findings as the source states them, for the method shown. Some binding calls cover weakened binding; strength is not graded here.
Molecular target: T1, CD81 (human), overexpressed on Jurkat CD4+ T cells from pcDNA3.1-CD81 (human) (UniProt P60033)
T1 sequence: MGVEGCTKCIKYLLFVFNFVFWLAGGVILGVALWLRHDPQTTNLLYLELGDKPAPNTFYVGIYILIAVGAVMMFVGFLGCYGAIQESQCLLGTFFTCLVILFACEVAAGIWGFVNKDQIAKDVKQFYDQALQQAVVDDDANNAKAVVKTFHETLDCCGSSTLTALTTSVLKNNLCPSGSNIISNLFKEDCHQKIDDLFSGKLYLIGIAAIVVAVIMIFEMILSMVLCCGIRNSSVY
Assay: flow cytometry on cells; 7P-FITC incubated with CD4+ T cells (Jurkat cells) transfected with pcDNA3.1-CD81 or the pcDNA3.1 vector; bound 7P-FITC read by flow cytometry; only the binder purified

B1: 7P conjugated with FITC (7-amino acid HVR1 mimic peptide 7P, GQTYTSG) (peptide)
peptide: GQTYTSG
modifications: conjugated with FITC (position not given)
binding: binds
